Common to all, as to assay: affinity purification with mass spectrometry; cross-linking (0.5% PFA) anti-FLAG IP from transfected 293T cells, on-bead trypsin release, Q-Exactive MS; 1.0% FDR, two peptides minimum at 95% threshold; three biological replicates; controls EV and VLCAD
In assay [1] the target is T1, C-terminally FLAG-tagged VLCAD (UniProt P49748).
T1 sequence: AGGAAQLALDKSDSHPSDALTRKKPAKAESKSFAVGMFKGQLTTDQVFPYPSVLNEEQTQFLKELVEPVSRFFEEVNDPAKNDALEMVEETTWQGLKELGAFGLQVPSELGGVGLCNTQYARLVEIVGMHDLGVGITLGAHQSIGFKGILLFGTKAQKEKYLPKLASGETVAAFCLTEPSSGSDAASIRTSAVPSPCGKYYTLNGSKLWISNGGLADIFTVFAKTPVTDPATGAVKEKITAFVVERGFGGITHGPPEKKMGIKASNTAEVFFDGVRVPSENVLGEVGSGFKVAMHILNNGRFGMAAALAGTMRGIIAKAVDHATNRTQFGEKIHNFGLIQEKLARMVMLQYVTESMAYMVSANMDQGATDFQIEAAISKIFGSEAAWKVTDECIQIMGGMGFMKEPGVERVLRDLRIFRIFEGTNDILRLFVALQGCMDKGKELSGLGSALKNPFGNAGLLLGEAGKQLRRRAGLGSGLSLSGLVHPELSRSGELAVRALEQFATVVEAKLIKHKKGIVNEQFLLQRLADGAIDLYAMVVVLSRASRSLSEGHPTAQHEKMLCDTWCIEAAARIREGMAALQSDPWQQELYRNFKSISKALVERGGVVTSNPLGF

Sequences of proteins named here, by UniProt entry; tags and fusion partners are left off. Residues count along the entry.
UniProt P00367, residues 54-558: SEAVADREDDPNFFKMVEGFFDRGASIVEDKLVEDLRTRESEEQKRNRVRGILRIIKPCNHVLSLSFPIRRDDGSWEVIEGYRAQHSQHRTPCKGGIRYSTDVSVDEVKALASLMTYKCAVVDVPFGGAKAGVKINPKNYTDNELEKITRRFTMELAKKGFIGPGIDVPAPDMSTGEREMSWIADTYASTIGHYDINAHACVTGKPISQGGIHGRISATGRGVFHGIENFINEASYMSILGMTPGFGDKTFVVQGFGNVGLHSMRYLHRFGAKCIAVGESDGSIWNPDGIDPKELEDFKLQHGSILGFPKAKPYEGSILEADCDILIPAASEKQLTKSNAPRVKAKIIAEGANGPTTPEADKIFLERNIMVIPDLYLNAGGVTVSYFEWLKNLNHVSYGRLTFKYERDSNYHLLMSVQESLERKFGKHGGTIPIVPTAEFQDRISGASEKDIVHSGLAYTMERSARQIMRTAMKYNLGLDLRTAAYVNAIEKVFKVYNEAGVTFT

Assay [2] deals with T2, C-terminally FLAG-tagged MMAB (UniProt Q96EY8).
T2 sequence: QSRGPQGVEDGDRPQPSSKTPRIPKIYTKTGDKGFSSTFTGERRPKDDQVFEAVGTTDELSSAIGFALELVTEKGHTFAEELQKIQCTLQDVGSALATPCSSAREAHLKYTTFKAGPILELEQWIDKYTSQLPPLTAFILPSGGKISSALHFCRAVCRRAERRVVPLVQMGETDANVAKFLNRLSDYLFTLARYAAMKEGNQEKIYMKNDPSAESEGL

Assay [3] has as its target T3, C-terminally FLAG-tagged methylmalonyl-CoA mutase (MMUT) (UniProt P22033).
T3 sequence: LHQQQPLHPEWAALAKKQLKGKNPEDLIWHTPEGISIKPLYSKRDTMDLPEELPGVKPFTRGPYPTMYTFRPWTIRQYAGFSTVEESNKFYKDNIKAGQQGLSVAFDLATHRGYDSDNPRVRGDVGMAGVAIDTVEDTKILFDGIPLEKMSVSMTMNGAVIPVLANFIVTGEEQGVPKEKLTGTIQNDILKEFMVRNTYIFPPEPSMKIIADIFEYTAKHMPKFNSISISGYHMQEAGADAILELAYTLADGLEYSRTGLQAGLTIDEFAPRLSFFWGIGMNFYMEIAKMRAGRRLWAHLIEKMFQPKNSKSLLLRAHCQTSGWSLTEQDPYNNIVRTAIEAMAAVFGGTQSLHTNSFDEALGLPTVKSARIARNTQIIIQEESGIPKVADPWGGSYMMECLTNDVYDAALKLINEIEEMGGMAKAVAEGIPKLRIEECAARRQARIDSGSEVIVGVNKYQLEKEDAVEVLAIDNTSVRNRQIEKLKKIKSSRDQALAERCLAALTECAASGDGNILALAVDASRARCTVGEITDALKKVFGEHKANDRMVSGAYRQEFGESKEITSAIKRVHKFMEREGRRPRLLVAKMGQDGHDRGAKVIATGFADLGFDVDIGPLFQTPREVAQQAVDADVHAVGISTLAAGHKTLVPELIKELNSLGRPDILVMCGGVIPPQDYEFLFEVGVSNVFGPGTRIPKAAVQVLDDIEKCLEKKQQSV

Assay [4] concerns the target T4, C-terminally FLAG-tagged MCEE (UniProt Q96PE7).
T4 sequence: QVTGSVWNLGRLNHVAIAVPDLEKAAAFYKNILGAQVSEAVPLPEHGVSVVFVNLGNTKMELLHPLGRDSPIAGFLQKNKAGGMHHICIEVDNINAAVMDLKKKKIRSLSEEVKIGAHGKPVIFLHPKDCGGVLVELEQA

The target of assay [5] is T5, C-terminally FLAG-tagged MMAA (UniProt Q8IVH4).
T5 sequence: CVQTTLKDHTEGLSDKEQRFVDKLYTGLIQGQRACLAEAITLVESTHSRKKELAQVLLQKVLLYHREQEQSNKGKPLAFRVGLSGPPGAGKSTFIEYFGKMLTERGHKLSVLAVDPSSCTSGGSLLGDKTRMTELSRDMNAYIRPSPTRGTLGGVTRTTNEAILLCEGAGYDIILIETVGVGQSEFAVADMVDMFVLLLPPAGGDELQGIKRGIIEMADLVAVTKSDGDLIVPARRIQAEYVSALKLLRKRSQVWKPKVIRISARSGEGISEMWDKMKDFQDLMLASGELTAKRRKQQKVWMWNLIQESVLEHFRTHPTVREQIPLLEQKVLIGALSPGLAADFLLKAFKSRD

No constants are given. Whether binding was seen depends on the method and setting. In cells and extracts the contact can be indirect. A yes stands for co-enrichment or nearness to the bait. Other partners may have been found. For part of these data: A no says only that the protein was not detected with the bait. Tags and fused reporters may be left off the sequences shown.

For the molecule “GLUD1 (glutamate dehydrogenase) (from UniProt P00367 54-558)”, the binding entry in assay [1] is given as “no binding”; in assay [2], “binds”; in assay [3], “binds”; in assay [4] it was “binds”.

B1: GOT2 (protein, UniProt P00505 30-430)
chain: SSWWTHVEMGPPDPILGVTEAFKRDTNSKKMNLGVGAYRDDNGKPYVLPSVRKAEAQIAAKNLDKEYLPIGGLAEFCKASAELALGENSEVLKSGRFVTVQTISGTGALRIGASFLQRFFKFSRDVFLPKPTWGNHTPIFRDAGMQLQGYRYYDPKTCGFDFTGAVEDISKIPEQSVLLLHACAHNPTGVDPRPEQWKEIATVVKKRNLFAFFDMAYQGFASGDGDKDAWAVRHFIEQGINVCLCQSYAKNMGLYGERVGAFTMVCKDADEAKRVESQLKILIRPMYSNPPLNGARIAAAILNTPDLRKQWLQEVKVMADRIIGMRTQLVSNLKKEGSTHNWQHITDQIGMFCFTGLKPEQVERLIKEFSIYMTKDGRISVAGVTSSNVGYLAHAIHQVTK
Regarding B1, the binding result in assay [1] is listed as “no binding”; in assay [2], “binds”; in assay [3] it was “binds”; in assay [5], “binds”; in assay [4], “binds”.

B2: endogenous methylmalonyl-CoA mutase (MMUT) (protein, UniProt P22033 33-750)
chain: T3 sequence
Turning to B2, the results for the binding entry in assay [1], in assay [2] and in assay [4] were “no binding”, “binds” and “binds”, respectively.

B3: endogenous MMAB (protein, UniProt Q96EY8 33-250)
chain: T2 sequence
As to B3, the binding entry in assay [1] is listed as “no binding”; in assay [3], “binds”; in assay [4] it was “binds”.

These data come from article PMC9886552.
